Results: publication PMC10827754, “The crystal structure of SUN1-KASH6 reveals an asymmetric LINC complex architecture compatible with nuclear membrane insertion” (Communications Biology, 2024)
These are yes or no findings as the source states them, for the method shown. A result given as binding can be weak or reduced; the word gives no strength. For some of these results: Binding seen in cells or lysates may run through a third protein.

Assays:
[1] = target: SUN domain of human SUN1 (amino-acids 616-812) (human); assay: SEC-MALS; untreated (native) co-purified complex; 8-13 mg/ml loaded on Superdex 200 Increase 10/300 GL in 20 mM Hepes pH 7.5, 150 mM KCl, 2 mM DTT; both purified
[2] = target: SUN domain of human SUN1 (amino-acids 616-812) (human); assay: cryo-EM 2D class averages; purified complex at 1 mg/ml after treatment at pH 5.0; reference-free 2D class averages; both purified
[3] = target: SUN domain of human SUN1 (amino-acids 616-812) (human); assay: SEC-SAXS; SUN1-KASH6 core 9:6 and 6:6 species; 12-25 mg/ml prepared as for SEC-MALS, Superdex 200 Increase 10/300 GL in 20 mM Hepes pH 7.5, 150 mM KCl, 2 mM DTT; curves fitted with crystal structures (CRYSOL), ab initio envelopes (DAMMIF); both purified

binding [1] | binding [2] | binding [3] | Binder
binds | – | – | EDSATSLEHILWPFTRLRHNGPPPV (peptide, UniProt Q12912 531-555) [KASH6 core W534A (human JAW1/LRMP amino-acids 531-555)]
– | binds | binds | EDSWTSLEHILWPFTRLRHNGPPPV (peptide, UniProt Q12912 531-555) [KASH6 core (human JAW1/LRMP amino-acids 531-555)]
binds | – | – | EDSWTSLEQILWPFTRLRHNGPPPV (peptide, UniProt Q12912 531-555) [KASH6 core H539Q (human JAW1/LRMP amino-acids 531-555)]
